Data reported in paper PMC6853375.
No constants are given. Whether binding was seen depends on the method and setting. Binding seen in cells or lysates may run through a third protein. Some results given as binding are weak or reduced against the parent protein; the word gives no strength.

The chains behind the UniProt entries cited, without tags or fusion partners.
UniProt P06748: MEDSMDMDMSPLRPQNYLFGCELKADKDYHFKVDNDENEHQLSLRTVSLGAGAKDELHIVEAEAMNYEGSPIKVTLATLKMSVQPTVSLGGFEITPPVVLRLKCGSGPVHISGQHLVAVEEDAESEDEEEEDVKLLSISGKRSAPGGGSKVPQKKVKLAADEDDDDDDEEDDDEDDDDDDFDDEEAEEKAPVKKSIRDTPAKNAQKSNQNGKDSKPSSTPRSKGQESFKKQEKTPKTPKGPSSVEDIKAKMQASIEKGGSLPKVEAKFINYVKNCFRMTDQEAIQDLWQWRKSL
UniProt Q12873: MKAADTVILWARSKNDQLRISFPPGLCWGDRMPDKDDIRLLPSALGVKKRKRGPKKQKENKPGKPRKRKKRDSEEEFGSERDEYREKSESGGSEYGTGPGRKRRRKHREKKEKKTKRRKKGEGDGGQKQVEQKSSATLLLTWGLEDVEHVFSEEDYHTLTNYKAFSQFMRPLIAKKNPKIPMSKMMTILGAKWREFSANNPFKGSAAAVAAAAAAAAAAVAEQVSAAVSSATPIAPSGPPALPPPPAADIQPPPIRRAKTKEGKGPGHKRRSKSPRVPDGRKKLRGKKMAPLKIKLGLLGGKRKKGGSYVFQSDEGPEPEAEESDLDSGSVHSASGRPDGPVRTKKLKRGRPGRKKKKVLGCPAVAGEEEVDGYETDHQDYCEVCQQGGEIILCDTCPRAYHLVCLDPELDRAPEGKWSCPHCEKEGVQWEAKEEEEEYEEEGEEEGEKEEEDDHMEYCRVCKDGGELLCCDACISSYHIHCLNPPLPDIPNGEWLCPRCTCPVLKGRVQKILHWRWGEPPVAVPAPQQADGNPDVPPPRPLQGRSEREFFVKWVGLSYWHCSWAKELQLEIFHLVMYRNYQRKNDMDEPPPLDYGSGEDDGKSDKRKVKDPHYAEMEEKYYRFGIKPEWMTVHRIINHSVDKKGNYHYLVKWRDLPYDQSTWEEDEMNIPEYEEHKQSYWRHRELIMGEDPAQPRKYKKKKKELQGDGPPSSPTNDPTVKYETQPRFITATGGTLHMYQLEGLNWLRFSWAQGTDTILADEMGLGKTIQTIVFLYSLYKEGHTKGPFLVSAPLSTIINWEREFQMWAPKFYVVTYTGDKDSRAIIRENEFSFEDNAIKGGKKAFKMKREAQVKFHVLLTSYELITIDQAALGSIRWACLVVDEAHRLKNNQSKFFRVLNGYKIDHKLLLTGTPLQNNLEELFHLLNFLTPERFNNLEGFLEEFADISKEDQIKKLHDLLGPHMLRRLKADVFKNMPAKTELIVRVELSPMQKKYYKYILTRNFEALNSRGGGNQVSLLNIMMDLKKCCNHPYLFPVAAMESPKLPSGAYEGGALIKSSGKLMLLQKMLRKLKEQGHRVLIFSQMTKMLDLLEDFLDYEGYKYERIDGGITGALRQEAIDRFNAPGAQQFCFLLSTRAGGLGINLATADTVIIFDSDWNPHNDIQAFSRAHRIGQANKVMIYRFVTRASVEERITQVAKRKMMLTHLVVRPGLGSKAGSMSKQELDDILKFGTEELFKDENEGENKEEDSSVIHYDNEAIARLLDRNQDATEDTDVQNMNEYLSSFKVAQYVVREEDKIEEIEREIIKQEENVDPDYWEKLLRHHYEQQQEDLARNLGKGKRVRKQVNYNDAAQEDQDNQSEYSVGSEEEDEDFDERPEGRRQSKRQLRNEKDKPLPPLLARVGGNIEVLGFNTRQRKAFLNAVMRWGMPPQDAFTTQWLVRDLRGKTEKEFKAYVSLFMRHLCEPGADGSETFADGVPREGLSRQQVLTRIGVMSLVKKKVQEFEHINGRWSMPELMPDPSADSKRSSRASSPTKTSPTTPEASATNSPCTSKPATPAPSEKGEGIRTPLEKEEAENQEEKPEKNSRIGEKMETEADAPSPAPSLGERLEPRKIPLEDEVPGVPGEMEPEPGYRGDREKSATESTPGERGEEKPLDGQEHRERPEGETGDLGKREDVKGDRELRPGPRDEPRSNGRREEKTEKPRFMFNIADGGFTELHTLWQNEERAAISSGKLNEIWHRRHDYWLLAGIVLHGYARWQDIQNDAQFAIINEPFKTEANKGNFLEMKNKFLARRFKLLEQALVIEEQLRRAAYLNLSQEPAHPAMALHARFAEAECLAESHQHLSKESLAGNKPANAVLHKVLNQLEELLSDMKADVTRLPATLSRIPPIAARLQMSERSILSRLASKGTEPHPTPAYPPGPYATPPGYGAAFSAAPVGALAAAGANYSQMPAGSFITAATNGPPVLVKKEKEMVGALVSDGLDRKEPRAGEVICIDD
UniProt Q14839: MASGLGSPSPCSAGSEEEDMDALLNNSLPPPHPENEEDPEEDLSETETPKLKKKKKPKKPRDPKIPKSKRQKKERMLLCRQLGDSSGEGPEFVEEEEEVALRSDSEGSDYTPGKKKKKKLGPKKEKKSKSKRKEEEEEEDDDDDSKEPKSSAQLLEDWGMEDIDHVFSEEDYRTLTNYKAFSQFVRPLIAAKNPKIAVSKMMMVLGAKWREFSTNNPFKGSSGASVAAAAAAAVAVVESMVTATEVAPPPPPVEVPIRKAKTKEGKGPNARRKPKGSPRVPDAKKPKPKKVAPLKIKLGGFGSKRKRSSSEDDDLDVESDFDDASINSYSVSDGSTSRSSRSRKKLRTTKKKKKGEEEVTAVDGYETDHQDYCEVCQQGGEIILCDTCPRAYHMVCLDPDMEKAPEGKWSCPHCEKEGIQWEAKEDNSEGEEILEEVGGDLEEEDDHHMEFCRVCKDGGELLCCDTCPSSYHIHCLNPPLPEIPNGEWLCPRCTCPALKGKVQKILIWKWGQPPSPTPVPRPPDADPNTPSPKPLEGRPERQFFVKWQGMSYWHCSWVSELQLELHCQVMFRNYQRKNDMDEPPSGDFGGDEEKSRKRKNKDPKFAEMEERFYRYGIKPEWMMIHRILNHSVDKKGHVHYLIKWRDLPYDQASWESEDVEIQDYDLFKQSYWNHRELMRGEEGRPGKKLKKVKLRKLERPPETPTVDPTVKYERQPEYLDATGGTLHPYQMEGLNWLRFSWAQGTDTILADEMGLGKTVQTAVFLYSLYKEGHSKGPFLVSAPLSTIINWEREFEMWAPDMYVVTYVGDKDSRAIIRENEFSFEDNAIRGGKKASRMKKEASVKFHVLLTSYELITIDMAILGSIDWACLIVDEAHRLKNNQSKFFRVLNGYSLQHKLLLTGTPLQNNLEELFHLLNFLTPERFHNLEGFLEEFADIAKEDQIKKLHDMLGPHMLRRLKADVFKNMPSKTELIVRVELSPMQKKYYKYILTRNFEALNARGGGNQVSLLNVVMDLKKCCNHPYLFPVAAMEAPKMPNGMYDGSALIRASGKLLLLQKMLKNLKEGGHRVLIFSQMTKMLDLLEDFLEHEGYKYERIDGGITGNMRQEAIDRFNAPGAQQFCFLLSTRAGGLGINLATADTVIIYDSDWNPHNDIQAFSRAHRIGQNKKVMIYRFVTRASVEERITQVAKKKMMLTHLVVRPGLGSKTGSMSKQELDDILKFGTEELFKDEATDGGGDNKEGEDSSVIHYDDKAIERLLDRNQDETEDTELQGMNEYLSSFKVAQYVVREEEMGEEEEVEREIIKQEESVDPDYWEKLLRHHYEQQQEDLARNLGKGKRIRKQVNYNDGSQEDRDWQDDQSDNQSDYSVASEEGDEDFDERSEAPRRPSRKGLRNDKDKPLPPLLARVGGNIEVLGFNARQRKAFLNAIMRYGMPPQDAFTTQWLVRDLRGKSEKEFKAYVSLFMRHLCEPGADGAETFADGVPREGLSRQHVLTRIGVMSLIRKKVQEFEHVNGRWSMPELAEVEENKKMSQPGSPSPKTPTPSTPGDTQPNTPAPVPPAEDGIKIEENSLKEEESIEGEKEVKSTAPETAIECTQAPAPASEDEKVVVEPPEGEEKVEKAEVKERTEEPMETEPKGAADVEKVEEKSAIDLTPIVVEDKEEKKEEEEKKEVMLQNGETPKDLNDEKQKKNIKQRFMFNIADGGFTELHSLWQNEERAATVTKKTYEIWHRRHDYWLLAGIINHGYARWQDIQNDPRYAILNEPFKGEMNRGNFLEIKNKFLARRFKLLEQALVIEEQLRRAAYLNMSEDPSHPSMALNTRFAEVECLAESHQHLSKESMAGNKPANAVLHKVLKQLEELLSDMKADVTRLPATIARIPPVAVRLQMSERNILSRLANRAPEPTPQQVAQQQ
UniProt P51532: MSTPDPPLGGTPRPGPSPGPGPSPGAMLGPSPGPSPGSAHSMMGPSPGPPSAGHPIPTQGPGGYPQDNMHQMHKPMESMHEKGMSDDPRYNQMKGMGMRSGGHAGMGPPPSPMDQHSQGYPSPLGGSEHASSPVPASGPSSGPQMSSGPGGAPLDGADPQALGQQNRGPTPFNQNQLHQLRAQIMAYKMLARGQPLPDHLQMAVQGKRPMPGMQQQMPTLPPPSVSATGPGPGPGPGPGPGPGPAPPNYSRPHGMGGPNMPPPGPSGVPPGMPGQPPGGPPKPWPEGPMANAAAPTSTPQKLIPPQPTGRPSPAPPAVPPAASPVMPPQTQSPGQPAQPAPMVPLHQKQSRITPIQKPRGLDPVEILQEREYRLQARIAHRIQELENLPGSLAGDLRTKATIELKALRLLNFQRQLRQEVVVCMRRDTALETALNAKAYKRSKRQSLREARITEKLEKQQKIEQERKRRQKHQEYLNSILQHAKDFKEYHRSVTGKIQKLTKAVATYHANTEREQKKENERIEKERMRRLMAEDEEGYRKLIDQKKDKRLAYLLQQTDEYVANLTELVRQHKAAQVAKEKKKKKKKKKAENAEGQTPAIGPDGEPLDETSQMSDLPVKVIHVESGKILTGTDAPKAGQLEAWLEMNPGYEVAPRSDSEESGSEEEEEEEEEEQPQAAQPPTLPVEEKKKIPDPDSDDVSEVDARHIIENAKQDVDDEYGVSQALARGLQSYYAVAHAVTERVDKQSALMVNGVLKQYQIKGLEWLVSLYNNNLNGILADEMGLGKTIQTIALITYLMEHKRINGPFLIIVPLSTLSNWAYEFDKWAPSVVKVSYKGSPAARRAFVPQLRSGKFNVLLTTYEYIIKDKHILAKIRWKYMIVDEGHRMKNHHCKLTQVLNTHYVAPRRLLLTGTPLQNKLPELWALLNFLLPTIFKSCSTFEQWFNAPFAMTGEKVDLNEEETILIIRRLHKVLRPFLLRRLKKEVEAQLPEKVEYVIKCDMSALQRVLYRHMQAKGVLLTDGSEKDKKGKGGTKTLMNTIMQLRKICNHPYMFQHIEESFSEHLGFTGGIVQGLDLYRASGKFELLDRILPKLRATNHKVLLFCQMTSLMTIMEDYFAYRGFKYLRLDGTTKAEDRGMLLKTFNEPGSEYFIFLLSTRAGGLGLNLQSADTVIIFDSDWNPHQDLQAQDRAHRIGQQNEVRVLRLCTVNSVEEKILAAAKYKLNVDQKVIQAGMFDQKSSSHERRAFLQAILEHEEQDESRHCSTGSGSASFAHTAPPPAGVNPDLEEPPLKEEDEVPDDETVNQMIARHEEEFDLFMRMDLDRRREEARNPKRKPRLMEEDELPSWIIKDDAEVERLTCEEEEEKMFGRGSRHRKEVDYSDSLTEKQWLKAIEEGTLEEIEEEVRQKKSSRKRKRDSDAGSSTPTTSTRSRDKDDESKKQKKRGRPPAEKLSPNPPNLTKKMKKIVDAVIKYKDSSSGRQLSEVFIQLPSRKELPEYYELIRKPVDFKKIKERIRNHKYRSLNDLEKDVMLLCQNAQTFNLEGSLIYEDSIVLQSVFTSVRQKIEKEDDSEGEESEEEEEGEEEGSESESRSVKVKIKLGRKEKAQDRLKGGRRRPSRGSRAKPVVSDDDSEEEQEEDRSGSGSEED
UniProt Q15022: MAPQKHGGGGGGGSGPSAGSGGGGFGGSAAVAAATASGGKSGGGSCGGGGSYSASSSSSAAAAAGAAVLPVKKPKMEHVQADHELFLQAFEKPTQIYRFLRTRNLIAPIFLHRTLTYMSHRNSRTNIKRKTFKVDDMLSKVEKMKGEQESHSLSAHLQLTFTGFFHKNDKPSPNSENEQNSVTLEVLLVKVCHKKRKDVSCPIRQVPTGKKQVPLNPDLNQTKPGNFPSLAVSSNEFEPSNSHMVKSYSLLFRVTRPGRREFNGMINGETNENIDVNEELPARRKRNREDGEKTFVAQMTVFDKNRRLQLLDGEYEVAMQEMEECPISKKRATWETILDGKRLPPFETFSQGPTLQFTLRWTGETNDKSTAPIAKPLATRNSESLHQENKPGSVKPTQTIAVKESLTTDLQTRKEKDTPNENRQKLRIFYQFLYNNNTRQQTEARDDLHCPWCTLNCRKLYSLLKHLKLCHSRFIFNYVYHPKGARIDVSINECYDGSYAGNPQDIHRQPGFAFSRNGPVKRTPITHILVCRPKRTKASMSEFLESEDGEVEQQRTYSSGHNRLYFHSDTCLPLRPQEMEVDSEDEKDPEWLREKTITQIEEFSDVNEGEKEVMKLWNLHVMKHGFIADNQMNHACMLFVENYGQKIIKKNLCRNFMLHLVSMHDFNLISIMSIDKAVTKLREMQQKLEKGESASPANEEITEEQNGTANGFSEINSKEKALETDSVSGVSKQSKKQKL

B1: WSTF (BAZ1B) (protein, UniProt Q9UIG0 1-1483)
chain: MAPLLGRKPFPLVKPLPGEEPLFTIPHTQEAFRTREEYEARLERYSERIWTCKSTGSSQLTHKEAWEEEQEVAELLKEEFPAWYEKLVLEMVHHNTASLEKLVDTAWLEIMTKYAVGEECDFEVGKEKMLKVKIVKIHPLEKVDEEATEKKSDGACDSPSSDKENSSQIAQDHQKKETVVKEDEGRRESINDRARRSPRKLPTSLKKGERKWAPPKFLPHKYDVKLQNEDKIISNVPADSLIRTERPPNKEIVRYFIRHNALRAGTGENAPWVVEDELVKKYSLPSKFSDFLLDPYKYMTLNPSTKRKNTGSPDRKPSKKSKTDNSSLSSPLNPKLWCHVHLKKSLSGSPLKVKNSKNSKSPEEHLEEMMKMMSPNKLHTNFHIPKKGPPAKKPGKHSDKPLKAKGRSKGILNGQKSTGNSKSPKKGLKTPKTKMKQMTLLDMAKGTQKMTRAPRNSGGTPRTSSKPHKHLPPAALHLIAYYKENKDREDKRSALSCVISKTARLLSSEDRARLPEELRSLVQKRYELLEHKKRWASMSEEQRKEYLKKKREELKKKLKEKAKERREKEMLERLEKQKRYEDQELTGKNLPAFRLVDTPEGLPNTLFGDVAMVVEFLSCYSGLLLPDAQYPITAVSLMEALSADKGGFLYLNRVLVILLQTLLQDEIAEDYGELGMKLSEIPLTLHSVSELVRLCLRRSDVQEESEGSDTDDNKDSAAFEDNEVQDEFLEKLETSEFFELTSEEKLQILTALCHRILMTYSVQDHMETRQQMSAELWKERLAVLKEENDKKRAEKQKRKEMEAKNKENGKVENGLGKTDRKKEIVKFEPQVDTEAEDMISAVKSRRLLAIQAKKEREIQEREMKVKLERQAEEERIRKHKAAAEKAFQEGIAKAKLVMRRTPIGTDRNHNRYWLFSDEVPGLFIEKGWVHDSIDYRFNHHCKDHTVSGDEDYCPRSKKANLGKNASMNTQHGTATEVAVETTTPKQGQNLWFLCDSQKELDELLNCLHPQGIRESQLKERLEKRYQDIIHSIHLARKPNLGLKSCDGNQELLNFLRSDLIEVATRLQKGGLGYVEETSEFEARVISLEKLKDFGECVIALQASVIKKFLQGFMAPKQKRRKLQSEDSAKTEEVDEEKKMVEEAKVASALEKWKTAIREAQTFSRMHVLLGMLDACIKWDMSAENARCKVCRKKGEDDKLILCDECNKAFHLFCLRPALYEVPDGEWQCPACQPATARRNSRGRNYTEESASEDSEDDESDEEEEEEEEEEEEEDYEVAGLRLRPRKTIRGKHSVIPPAARSGRRPGKKPHSTRRSQPKAPPVDDAEVDELVLQTKRSSRRQSLELQKCEEILHKIVKYRFSWPFREPVTRDEAEDYYDVITHPMDFQTVQNKCSCGSYRSVQEFLTDMKQVFTNAEVYNCRGSHVLSCMVKTEQCLVALLHKHLPGHPYVRRKRKKFPDRLAEDEGDSEPEAVGQSRGRRQKK
B2: CTCF (protein, UniProt P49711 1-727)
chain: MEGDAVEAIVEESETFIKGKERKTYQRRREGGQEEDACHLPQNQTDGGEVVQDVNSSVQMVMMEQLDPTLLQMKTEVMEGTVAPEAEAAVDDTQIITLQVVNMEEQPINIGELQLVQVPVPVTVPVATTSVEELQGAYENEVSKEGLAESEPMICHTLPLPEGFQVVKVGANGEVETLEQGELPPQEDPSWQKDPDYQPPAKKTKKTKKSKLRYTEEGKDVDVSVYDFEEEQQEGLLSEVNAEKVVGNMKPPKPTKIKKKGVKKTFQCELCSYTCPRRSNLDRHMKSHTDERPHKCHLCGRAFRTVTLLRNHLNTHTGTRPHKCPDCDMAFVTSGELVRHRRYKHTHEKPFKCSMCDYASVEVSKLKRHIRSHTGERPFQCSLCSYASRDTYKLKRHMRTHSGEKPYECYICHARFTQSGTMKMHILQKHTENVAKFHCPHCDTVIARKSDLGVHLRKQHSYIEQGKKCRYCDAVFHERYALIQHQKSHKNEKRFKCDQCDYACRQERHMIMHKRTHTGEKPYACSHCDKTFRQKQLLDMHFKRYHDPNFVPAAFVCSKCGKTFTRRNTMARHADNCAGPDGVEGENGGETKKSKRGRKRKMRSKKEDSSDSENAEPDLDDNEDEEEPAVEIEPEPEPQPVTPAPPPAKKRRGRPPGRTNQPKQNQPTAIIQVEDQNTGAIENIIVEVKKEPDAEPAEGEEEEAQPAATDAPNGDLTPEMILSMMDR

Tests used:
Flag-HA-NPM [1] = biological target: Flag-HA-NPM (UniProt P06748); test: co-IP; nuclear extracts of K562 MOCK, NPM or NPM-MLF1 cells; IP with Flag beads or specific antibodies (CHD4, SNF2H, BRG1, EZH2, CDK9, CTCF, YY1) or isotype-matched IgG overnight at 4°C; IP buffer 50 mM Tris pH 7.5, 145 mM KCl, 0.5% NP40; Western blot; also with 10 μg/mL DNaseI
Flag-HA-NPM [2] = biological target: Flag-HA-NPM (UniProt P06748); test: co-IP + SEC; Flag-NPM and Flag-NPM-MLF1 affinity purified complexes from K562 nuclear extracts fractionated on Superose 6 10/300GL; fractions analysed by Western blot
[3] = biological target: endogenous NPM (human (endogenous in K562 and HEL)) (UniProt P06748); test: co-IP; HEL WT cell nuclear extracts; IP with NPM, BRG1, SNF2H antibodies or isotype-matched IgG; Western blot
Flag-HA-NPM [4] = biological target: Flag-HA-NPM (UniProt P06748); test: co-IP; nuclear extracts of K562 MOCK, NPM or NPM-MLF1 cells; IP with Flag beads or specific antibodies (CHD4, SNF2H, BRG1, EZH2, CDK9, CTCF, YY1) or isotype-matched IgG overnight at 4°C; IP buffer 50 mM Tris pH 7.5, 145 mM KCl, 0.5% NP40; Western blot; also with 10 μg/mL DNaseI; remark: listed apart in the source

binding (Flag-HA-NPM [1])	binding (Flag-HA-NPM [2])	binding [3]	binding (Flag-HA-NPM [4])	Molecule
binds				CDK9 (from UniProt P50750 1-372) (enzyme)
binds	binds			CHD3 (from UniProt Q12873 1-2000)
binds	binds	binds		CHD4 (from UniProt Q14839 1-1912)
	binds			HDAC1 (from UniProt Q13547 1-482)
binds				RBBP5 (from UniProt Q15291 1-538)
binds				SMARCA1 (SNF2L) (from UniProt P28370 1-1042)
binds		binds		SMARCA4 (BRG1) (from UniProt P51532 1-1647)
binds		binds		SMARCA5 (SNF2H) (from UniProt O60264 1-1052)
binds				SUZ12 (from UniProt Q15022 1-739)
binds				YY1 (from UniProt P25490 1-414)
			binds	B1
			binds	B2
